Consider 3 molecules from article PMC2672617, “Abl Kinase Inhibits the Engulfment of Apopotic Cells in Caenorhabditis elegans” (PLoS Biology, 2009).

Chains of the proteins cited; added tags and fusions are not shown.
UniProt P08659: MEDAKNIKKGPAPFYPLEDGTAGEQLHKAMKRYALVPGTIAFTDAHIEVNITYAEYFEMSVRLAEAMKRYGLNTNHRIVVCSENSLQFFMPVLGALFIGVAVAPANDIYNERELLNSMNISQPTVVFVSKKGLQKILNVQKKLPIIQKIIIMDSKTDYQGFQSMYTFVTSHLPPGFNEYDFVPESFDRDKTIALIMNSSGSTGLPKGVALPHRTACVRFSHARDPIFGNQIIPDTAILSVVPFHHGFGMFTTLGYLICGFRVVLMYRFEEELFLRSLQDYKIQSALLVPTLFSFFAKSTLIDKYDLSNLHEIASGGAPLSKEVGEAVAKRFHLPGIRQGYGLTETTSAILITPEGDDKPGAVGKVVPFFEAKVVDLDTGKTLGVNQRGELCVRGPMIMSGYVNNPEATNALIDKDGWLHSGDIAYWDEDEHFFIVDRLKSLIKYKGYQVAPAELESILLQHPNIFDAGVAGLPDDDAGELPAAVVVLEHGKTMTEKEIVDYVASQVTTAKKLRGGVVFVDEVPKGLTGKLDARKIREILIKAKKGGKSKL

These are yes or no findings as the source states them, for the method shown. Binding seen in cells or lysates may run through a third protein. Some results given as binding are weak or reduced against the parent protein; the word gives no strength. Tags and fused reporters may be left off the sequences shown.

In this experiment the target is T1, GST-ABI-1 (glutathione-S-transferase fused to the N terminus of full-length C. elegans ABI-1) (C. elegans) (UniProt Q10929).
T1 sequence: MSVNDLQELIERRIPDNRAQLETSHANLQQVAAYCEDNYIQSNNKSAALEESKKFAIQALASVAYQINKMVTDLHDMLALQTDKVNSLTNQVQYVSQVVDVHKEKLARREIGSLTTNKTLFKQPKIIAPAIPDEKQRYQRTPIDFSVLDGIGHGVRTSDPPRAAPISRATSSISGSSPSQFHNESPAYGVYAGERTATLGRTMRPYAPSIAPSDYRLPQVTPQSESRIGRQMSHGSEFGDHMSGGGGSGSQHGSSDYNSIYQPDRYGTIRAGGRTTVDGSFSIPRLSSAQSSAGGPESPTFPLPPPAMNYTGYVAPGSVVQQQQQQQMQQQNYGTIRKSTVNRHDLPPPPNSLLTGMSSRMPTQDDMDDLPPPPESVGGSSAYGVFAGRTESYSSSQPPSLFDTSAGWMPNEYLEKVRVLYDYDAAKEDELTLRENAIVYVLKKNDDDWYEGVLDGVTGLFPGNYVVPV
In words: pull-down; GST, GST-ABI or GST-ABIΔ on glutathione beads incubated with 25 μl of a 100 μl 35S-labelled in vitro transcription/translation reaction; 2 h at 4 °C in PBB2 (25 mM HEPES pH 7.6, 150 mM NaCl, 5 mM MgCl2, 0.1 mM EDTA, 0.1% Tween-20, 0.25% BSA); washes with 300 and 250 mM NaCl; SDS-PAGE, autoradiography, phosphorimager quantitation; only the target purified.

Regarding “Luciferase (control) (from UniProt P08659 1-550) (enzyme)”, the binding entry is given as “no binding”.

B1: ABL-1(112–611), N-terminal fragment of C. elegans ABL-1 (domain or fragment, UniProt P03949 112-611, looked up)
chain: SSSSSAPLFVALYDFHGVGEEQLSLRKGDQVRILGYNKNNEWCEARLYSTRKNDASNQRRLGEIGWVPSNFIAPYNSLDKYTWYHGKISRSDSEAILGSGITGSFLVRESETSIGQYTISVRHDGRVFHYRINVDNTEKMFITQEVKFRTLGELVHHHSVHADGLICLLMYPASKKDKGRGLFSLSPNAPDEWELDRSEIIMHNKLGGGQYGDVYEGYWKRHDCTIAVKALKEDAMPLHEFLAEAAIMKDLHHKNLVRLLGVCTHEAPFYIITEFMCNGNLLEYLRRTDKSLLPPIILVQMASQIASGMSYLEARHFIHRDLAARNCLVSEHNIVKIADFGLARFMKEDTYTAHAGAKFPIKWTAPEGLAFNTFSSKSDVWAFGVLLWEIATYGMAPYPGVELSNVYGLLENGFRMDGPQGCPPSVYRLMLQCWNWSPSDRPRFRDIHFNLENLISSNSLNDEVQKQLKKNNDKKLESDKRRSNVRERSDSKSRHSSHHD
modifications: labeled with 35S in vitro
notes: contains the SH3, SH2 and tyrosine kinase domains; Cloned in pDEST14 (Gateway) for expression in vitro; also called N-terminal half of ABL-1; source: in vitro translated (TNT T7 Quick Coupled Transcription/Translation system, Promega)
Regarding B1, the binding result is “binds”.

B2: ABL-1(606–1,224), C-terminal fragment of C. elegans ABL-1 (domain or fragment, UniProt P03949 606-1224)
chain: HSSHHDRDRDRESLHSRNSNPEIPNRSFIRTDDSVSFFNPSTTSKVTSFRAQGPPFPPPPQQNTKPKLLKSVLNSNARHASEEFERNEQDDVVPLAEKNVRKAVTRLGGTMPKGQRIDAYLDSMRRVDSWKESTDADNEGAGSSSLSRTVSNDSLDTLPLPDSMNSSTYVKMHPASGENVFLRQIRSKLKKRSETPELDHIDSDTADETTKSEKSPFGSLNKSSIKYPIKNAPEFSENHSRVSPVPVPPSRNASVSVRPDSKAEDSSDETTKDVGMWGPKHAVTRKIEIVKNDSYPNVEGELKAKIRNLRHVPKEESNTSSQEDLPLDATDNTNDSIIVIPRDEKAKVRQLVTQKVSPLQHHRPFSLQCPNNSTSSAISHSEHADSSETSSLSGVYEERMKPELPRKRSNGDTKVVPVTWIINGEKEPNGMARTKSLRDITSKFEQLGTASTIESKIEEAVPYREHALEKKGTSKRFSMLEGSNELKHVVPPRKNRNQDESGSIDEEPVSKDMIVSLLKVIQKEFVNLFNLASSEITDEKLQQFVIMADNVQKLHSTCSVYAEQISPHSKFRFKELLSQLEIYNRQIKFSHNPRAKPVDDKLKMAFQDCFDQIMRLVDR
modifications: labeled with 35S in vitro
For B2, the binding result is given as “no binding”.
